Laboratory results reported in patent US8642602B2, “Method of inhibiting fibrogenesis and treating fibrotic disease” (University of Georgia Research Foundation, Inc., priority 2009, dated 2014).
At least one compound was matched to its structure with a doubt left.

System: hepatic stellate cells
Test: Morphological signs of MTD in freshly isolated hepatic stellate cells cultured on plastic
Type: cell-based, rat
Details: freshly isolated quiescent HSC, 1 μM given 12 h after isolation, 10 days of culture (FIG. 5D)

Nc1nccc2c1ncn2[C@@H]1C=C(CO)[C@@H](O)[C@H]1O [Compound 3, 3-deazaneplanocin A]
morphological signs of MTD: completely prevented
